Laboratory results published in patent publication US11192849B2, “Compounds, compositions, and methods for modulating ferroptosis and treating excitotoxic disorders” (THE TRUSTEES OF COLUMBIA UNIVERSITY IN THE CITY OF NEW YORK, priority 2013, dated 2021).
At least one compound was matched to its structure with a doubt left.

Legend:
[1] = test system: freshly isolated murine renal tubules; experiment: Synchronized necrosis of freshly isolated renal tubules (fatty-acid depletion / erastin); type: cell-based, mouse; details: in the presence of fatty acids
Experimental: Six to 12 mice were used for each isolated tubule preparation, depending on the amount of material needed for particular experiments. For preparation of isolated tubules, mice were anesthetized with ketamine (100 mg/kg i.p.) and xylazine (10 mg/kg i.p.), and the kidneys were immediately removed. Type I collagenase was from Worthington Biochemical. Percoll was purchased from Amersham Biosciences. All other reagents and chemicals, including delipidated BSA, were of the highest grade available from Sigma-Aldrich. […] The cortices were then dissected and minced on an ice-cold tile and then resuspended in additional solution A for 8-10 min of digestion at 37° C., followed by enrichment of proximal tubules using centrifugation on self-forming Percoll gradients. For Nec-1 studies in renal tubules, renal cortices were dissected in ice-cold dissection solution (DS) [HBSS with 10 mmol/L glucose, 5 mmol/L glycine, 1 mmol/L alanine, 15 mmol/L Hepes (pH 7.4); osmolality, 325 mOsmol/L] and sliced into 1-mm pieces. The fragments were transferred to collagenase solution (DS with 0.1% (wt/vol) type 2 collagenase and 96 μg/mL soybean trypsin inhibitor) and digested for 30 min at 37° C. and 61×g. After digestion, the supernatant was sieved through two nylon sieves: first 250-μm pore size and then 100-μm pore size. […]

[2] = biological target: T1, system xc− (Homo sapiens, UniProt Q9UPY5); experiment: [14C]Cystine uptake assay in HT-1080 cells; type: cell-based; details: Erastin 10 μM, glutamate 50 mM, SAS 1 mM
T1 construct: endogenous in cells; host or cells: HT-1080 cells (ATCC)
T1 sequence (Q9UPY5 1-501): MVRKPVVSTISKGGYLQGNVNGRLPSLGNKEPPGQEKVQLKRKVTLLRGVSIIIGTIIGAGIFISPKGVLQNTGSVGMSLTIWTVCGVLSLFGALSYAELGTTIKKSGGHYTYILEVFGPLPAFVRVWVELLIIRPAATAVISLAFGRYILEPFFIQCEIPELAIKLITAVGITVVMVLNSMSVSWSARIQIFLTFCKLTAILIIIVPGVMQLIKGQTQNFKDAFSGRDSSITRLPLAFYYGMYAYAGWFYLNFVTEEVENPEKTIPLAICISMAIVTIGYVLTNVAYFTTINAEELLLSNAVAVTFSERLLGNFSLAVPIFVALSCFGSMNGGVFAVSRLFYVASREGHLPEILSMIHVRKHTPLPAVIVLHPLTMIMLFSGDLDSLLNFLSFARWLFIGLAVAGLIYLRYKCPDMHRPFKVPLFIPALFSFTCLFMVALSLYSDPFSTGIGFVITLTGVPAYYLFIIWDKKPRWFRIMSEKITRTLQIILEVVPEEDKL
T1 sequence (P08195 1-529 partner): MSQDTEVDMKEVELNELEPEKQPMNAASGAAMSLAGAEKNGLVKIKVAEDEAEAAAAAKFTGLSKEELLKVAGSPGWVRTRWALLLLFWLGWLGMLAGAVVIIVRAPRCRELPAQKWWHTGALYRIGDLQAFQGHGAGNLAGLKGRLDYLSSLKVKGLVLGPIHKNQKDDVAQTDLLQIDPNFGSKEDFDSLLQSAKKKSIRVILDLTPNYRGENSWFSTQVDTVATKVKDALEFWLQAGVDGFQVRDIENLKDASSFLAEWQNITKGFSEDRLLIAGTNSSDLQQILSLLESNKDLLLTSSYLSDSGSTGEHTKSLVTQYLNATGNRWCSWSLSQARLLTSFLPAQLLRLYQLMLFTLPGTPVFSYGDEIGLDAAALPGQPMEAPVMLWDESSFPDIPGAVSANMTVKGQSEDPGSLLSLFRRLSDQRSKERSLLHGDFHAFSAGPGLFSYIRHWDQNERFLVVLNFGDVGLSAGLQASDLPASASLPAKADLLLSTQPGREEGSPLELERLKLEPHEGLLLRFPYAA
Experimental: 200,000 HT-1080 cells/well were seeded overnight in 6-well dishes (Corning). […] At this point, in each well the buffer was replaced with 600 μL uptake buffer containing compound and 0.12 μCi (80-110 mCi/mmol) of L-[3,3′-^14C]-cystine (Perkin Elmer) and incubated for 3 minutes at 37° C. Cells were then washed three times with ice-cold uptake buffer and lysed in 500 μL 0.1 M NaOH. To this lysate was added 15 mL of scintillation fluid and radioactive counts per minute were obtained using a scintillation counter. All measurements were performed in triplicate for each condition.

[3] = test system: HT-1080 cells; experiment: Mitochondrial ROS (MitoSOX) in HT-1080 cells; type: cell-based, human; details: HT-1080, 6 hours; erastin 10 μM, rotenone 250 nM

CCOc1ccccc1-n1c(C(C)N2CCN(C(=O)COc3ccc(Cl)cc3)CC2)nc2ccccc2c1=O (stereo not drawn) [erastin]
tubular necrosis [1]: accelerated | Na+-independent uptake of [14C]cystine [2]: abolished | MitoSOX-sensitive mitochondrial ROS production [3]: no increase in MitoSOX-sensitive mitochondrial ROS production
